Data on three molecules can be found in patent publication US20260102527A1.

By UniProt entry, the sequences of proteins in these tests, tags left out. Where a name states a change or a piece, a line headed by the entry shows the natural chain unless it says otherwise.
UniProt P01732: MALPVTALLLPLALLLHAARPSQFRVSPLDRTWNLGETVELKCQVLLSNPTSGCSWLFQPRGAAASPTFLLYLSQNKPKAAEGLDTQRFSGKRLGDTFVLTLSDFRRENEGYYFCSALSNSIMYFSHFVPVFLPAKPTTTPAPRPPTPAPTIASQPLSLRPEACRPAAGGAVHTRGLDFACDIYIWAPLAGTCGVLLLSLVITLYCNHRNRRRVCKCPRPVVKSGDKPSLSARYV

For assay [1], the target named is recombinant hCD8αβ protein (R&D systems) (human) (UniProt P01732). Nature of the assay: SPR.
Assay [2] shares this target. Nature of the assay: equilibrium binding ELISA.

These are yes or no findings as the source states them, for the method shown. Some entries that bind do so weakly or less than the wild type.

B1: anti-human CD8β single domain antibody 22728 (VHH, not shown: small tags and cut ends)
VHH: DVQLVESGGGLVQAGDSLRLSCVASGRTVSGGVMGWFRQAPGKGREFVASIKWESGRTYYVDSLKDGFTISRDSPKNTVYLQMTNLKPEDTAVYYCAAGIRVWQLSTLESTYDDWGQGTQVTVSS
As for B1, the binding entry in assay [1] and in assay [2] was “binds” in each case.

B2: anti-human CD8β single domain antibody 22772 (VHH, not shown: small tags and cut ends)
VHH: DVQLVESGGGLVQPGGSLRLSCRASGHTFSDLSVGWFRRAPGKAREFVATTAWNGSIRYAESVKGRFTISRDNAANMMYLQMNSLKPEDTAIYYCAAAVGISYDYWGQGTQVTVSS
In the case of B2, the binding result in assay [1] and in assay [2] was “binds” throughout.

B3: anti-human CD8β single domain antibody 22719 (VHH, not shown: small tags and cut ends)
VHH: DVQLVESGGGLVQAGGSLRLSCRASGHTFSDTAVGWFRRVPGKEREFVATIAGSGSIRYSESVKGRFTISGDNAKNMVYLQMNRLKPEDTGVYYCAAAVGISYDYWGQGTQVTVSS
On to B3, for which the binding entry in assay [1] and in assay [2] was “binds” in each case.
